In PMC11045757, “Group 3 medulloblastoma transcriptional networks collapse under domain specific EP300/CBP inhibition” (Nature Communications, 2024):
“And” between values parts separate entries of the source, which are not always exact repeats. Identical values can stand only once. This continues a long series; more values of the same kind are listed elsewhere.

System: HDMB03 (HDMBO3) group 3 medulloblastoma cells
Assay: CellTiter-Glo dose-response growth assay
Assay type: cell-based
Conditions: HDMBO3, log10[compound], M = -5.73
Procedure: CellTiter-Glo assay was performed as per the manufacturer’s instructions, at the noted timepoint after compound treatment or plating. For Kelly, TE617T, RhJT, NCIH2122, NCIH650 and 143B, 500 cells were plated in normal growth media per well in a 384-well plate (Corning). HDMB03 and MB002 cells were plated in growth media at 500 cells/well in a 384-well plate. […] Cells were incubated for the noted timepoints prior to performing CellTiter-Glo assay as per the manufacturer’s instructions, and reading plates on an Envision 2104 microplate reader.

## CO[C@H]1CC[C@H](n2c([C@@H]3CCCC(=O)N3c3ccc(F)c(F)c3)nc3cc(-c4c(C)noc4C)ccc32)CC1 [CCS1477]
  normalized growth (fraction of control), replicate values: 0.044 and 0.04 and 0.041 and 0.022 and 0.023 and 0.035 and 0.031
